{
  "sequences": {"note": "By UniProt entry, the sequences of proteins in these tests, tags left out. Where a name states a change or a piece, a line headed by the entry shows the natural chain unless it says otherwise. Residues count along the entry.", "UniProt Q8IZ69": "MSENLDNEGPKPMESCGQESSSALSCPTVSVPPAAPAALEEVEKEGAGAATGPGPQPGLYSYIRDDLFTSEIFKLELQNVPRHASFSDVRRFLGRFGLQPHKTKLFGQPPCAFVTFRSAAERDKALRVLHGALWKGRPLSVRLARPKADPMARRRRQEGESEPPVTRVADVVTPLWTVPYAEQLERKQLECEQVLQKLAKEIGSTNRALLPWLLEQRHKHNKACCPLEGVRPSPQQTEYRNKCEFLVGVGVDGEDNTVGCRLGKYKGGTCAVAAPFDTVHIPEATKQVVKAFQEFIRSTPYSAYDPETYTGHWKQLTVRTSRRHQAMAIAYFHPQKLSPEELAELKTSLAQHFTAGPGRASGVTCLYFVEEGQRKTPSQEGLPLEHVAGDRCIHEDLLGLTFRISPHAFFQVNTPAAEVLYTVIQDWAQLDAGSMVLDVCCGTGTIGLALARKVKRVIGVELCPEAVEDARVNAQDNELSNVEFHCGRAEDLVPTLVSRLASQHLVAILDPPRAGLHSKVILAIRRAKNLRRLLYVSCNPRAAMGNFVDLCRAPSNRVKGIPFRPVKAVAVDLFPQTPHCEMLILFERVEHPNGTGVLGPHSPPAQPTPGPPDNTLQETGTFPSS", "UniProt Q8IWV8": "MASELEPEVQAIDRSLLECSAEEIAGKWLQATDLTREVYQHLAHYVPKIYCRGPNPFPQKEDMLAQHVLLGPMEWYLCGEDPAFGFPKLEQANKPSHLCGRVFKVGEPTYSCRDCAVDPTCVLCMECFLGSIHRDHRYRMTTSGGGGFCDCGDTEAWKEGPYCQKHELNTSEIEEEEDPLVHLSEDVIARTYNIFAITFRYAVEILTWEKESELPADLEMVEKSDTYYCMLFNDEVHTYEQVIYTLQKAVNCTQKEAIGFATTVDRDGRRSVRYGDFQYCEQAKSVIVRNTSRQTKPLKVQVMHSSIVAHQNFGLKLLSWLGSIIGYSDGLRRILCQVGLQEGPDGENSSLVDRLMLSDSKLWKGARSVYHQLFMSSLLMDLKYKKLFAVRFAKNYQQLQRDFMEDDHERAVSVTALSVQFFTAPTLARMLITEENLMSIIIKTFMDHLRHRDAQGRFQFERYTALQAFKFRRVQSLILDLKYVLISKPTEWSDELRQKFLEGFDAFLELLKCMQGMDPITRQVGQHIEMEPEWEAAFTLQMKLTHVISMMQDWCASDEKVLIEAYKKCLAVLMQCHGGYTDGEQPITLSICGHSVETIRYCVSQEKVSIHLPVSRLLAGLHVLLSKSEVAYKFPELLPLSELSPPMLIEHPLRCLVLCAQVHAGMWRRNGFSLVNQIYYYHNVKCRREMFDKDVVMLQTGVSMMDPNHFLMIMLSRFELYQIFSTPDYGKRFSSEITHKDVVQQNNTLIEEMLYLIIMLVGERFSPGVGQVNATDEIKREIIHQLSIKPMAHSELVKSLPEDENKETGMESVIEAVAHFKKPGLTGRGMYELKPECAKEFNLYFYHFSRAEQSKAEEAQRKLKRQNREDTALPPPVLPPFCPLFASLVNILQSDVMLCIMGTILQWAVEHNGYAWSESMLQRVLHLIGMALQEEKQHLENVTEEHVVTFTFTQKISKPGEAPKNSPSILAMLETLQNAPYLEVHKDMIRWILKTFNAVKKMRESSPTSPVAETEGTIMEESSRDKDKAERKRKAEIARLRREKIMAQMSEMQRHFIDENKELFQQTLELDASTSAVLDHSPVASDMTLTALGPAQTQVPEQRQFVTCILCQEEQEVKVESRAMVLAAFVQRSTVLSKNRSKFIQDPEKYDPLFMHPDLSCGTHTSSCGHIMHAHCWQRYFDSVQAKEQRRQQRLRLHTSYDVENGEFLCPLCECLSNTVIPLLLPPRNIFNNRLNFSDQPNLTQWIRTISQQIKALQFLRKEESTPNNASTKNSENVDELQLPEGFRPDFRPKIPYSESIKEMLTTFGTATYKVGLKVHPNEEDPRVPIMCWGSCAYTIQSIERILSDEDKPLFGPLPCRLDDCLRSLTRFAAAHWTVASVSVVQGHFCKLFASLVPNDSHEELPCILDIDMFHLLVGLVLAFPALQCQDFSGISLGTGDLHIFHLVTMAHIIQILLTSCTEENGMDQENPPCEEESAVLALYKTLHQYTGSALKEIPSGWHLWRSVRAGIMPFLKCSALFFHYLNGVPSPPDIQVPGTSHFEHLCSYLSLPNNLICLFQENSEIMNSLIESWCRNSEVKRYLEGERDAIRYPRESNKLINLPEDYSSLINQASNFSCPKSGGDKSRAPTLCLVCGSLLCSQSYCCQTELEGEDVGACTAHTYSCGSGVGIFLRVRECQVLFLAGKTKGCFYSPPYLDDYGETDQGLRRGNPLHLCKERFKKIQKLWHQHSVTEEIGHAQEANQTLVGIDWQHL", "UniProt O15042": "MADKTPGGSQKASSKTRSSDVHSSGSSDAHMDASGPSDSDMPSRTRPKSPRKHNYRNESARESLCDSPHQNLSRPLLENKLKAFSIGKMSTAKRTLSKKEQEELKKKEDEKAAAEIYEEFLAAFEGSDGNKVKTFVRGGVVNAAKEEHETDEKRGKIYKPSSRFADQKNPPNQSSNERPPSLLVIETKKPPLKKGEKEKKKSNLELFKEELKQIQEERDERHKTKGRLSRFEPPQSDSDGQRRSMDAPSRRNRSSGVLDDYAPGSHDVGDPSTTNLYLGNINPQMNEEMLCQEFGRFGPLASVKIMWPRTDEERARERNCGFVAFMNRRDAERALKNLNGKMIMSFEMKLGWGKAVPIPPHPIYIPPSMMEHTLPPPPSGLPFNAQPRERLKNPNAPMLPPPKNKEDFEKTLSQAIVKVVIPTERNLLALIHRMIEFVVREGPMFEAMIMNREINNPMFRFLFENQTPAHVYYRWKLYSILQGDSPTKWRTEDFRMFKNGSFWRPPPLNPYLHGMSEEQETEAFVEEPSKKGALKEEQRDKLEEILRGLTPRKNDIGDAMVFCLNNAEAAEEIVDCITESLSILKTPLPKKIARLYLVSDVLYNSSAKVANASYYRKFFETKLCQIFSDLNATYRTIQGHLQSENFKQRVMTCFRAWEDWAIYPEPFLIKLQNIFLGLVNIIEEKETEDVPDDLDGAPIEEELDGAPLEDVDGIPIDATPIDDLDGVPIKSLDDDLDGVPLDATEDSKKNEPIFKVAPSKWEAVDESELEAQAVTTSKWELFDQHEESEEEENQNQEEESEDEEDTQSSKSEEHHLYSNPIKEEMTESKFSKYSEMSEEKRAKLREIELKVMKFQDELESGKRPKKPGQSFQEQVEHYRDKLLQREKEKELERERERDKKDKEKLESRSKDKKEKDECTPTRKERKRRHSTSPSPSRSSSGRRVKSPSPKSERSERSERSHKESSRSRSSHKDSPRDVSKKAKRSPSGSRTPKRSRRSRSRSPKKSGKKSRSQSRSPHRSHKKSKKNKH", "UniProt Q3KQV9, 286-318": "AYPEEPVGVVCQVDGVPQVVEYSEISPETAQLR", "UniProt P68371, whole entry, looked up": "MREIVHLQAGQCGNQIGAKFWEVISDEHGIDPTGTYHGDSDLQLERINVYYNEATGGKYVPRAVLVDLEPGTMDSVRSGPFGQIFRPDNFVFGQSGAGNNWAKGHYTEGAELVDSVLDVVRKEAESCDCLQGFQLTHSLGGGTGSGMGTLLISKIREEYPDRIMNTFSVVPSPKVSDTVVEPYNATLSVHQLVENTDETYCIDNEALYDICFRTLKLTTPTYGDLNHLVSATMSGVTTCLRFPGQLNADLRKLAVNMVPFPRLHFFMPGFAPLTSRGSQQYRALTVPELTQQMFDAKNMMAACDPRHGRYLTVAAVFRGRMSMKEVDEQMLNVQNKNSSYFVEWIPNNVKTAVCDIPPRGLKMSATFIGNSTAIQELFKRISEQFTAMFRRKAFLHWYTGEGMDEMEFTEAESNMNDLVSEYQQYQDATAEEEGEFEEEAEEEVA", "UniProt Q6IBS0": "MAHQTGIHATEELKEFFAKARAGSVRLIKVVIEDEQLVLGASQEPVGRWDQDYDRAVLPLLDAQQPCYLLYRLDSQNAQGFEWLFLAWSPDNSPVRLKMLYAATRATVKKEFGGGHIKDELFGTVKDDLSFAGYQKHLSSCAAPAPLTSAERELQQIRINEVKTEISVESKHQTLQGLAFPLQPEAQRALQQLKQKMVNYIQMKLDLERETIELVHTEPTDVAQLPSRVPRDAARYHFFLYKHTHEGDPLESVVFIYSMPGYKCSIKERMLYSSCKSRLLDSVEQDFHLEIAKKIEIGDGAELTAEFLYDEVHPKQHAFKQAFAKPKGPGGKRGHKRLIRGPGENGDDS", "UniProt O75648": "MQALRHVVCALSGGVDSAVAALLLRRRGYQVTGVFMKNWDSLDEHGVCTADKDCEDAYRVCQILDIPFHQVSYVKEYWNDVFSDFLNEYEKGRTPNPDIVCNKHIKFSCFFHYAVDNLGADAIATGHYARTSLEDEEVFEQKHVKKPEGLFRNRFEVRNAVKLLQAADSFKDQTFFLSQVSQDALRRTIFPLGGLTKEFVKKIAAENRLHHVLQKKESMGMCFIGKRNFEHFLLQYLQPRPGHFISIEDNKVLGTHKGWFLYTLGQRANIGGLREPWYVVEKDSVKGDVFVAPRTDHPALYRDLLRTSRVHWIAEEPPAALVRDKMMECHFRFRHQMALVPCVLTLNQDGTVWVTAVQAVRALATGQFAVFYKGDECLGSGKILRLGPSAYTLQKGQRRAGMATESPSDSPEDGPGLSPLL", "UniProt Q9NZ09": "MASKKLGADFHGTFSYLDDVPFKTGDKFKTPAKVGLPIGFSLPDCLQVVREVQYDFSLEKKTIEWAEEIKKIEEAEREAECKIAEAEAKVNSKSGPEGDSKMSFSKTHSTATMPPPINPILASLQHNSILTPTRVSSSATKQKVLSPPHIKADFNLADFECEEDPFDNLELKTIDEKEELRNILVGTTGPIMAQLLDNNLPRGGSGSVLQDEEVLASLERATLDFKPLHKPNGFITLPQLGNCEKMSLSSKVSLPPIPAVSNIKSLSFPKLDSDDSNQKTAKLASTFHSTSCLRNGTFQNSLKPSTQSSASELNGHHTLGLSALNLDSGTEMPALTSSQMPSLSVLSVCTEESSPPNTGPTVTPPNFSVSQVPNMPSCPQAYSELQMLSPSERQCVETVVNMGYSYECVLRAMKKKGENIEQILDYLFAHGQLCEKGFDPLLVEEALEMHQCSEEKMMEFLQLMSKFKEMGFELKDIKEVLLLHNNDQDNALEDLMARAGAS", "UniProt Q86TV6": "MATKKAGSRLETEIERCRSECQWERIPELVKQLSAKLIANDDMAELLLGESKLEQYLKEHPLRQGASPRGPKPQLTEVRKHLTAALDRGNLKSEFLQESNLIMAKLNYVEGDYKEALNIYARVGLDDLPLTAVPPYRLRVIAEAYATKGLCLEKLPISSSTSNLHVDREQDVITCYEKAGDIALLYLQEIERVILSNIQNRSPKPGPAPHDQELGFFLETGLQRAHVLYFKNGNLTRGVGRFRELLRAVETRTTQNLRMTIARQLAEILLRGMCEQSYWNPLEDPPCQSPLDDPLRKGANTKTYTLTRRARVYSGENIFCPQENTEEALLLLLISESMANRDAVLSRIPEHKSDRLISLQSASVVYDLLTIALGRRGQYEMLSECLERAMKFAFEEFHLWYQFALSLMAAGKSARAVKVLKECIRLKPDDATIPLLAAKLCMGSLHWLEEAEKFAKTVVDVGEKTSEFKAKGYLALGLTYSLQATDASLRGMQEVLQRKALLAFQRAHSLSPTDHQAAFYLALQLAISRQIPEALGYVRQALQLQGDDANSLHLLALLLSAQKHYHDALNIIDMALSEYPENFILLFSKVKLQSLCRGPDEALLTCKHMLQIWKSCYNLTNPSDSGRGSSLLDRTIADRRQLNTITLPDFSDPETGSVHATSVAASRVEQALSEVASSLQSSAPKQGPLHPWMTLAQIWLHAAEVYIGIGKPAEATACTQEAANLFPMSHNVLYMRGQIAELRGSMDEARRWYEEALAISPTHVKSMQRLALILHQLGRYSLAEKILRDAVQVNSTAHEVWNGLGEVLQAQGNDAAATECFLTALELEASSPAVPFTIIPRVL", "UniProt Q7Z6J9": "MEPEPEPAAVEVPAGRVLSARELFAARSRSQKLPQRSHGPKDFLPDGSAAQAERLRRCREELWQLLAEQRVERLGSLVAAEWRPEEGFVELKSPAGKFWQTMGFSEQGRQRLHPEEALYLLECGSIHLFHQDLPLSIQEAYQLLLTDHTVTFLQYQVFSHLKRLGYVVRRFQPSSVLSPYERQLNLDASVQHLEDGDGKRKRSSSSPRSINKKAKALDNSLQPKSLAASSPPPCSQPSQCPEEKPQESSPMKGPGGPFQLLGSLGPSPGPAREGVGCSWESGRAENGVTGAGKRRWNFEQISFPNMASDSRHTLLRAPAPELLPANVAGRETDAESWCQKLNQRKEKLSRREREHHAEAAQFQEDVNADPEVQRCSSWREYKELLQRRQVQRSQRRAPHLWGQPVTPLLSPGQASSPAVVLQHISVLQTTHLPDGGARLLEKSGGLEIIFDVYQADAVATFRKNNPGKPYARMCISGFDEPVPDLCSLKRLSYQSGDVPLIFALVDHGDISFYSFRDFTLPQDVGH", "UniProt Q9BSJ2, 715-735": "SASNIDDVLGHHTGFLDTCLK"},
  "source": "the supplement of paper PMC11732987",
  "about": "“Enantioselective OTUD7B fragment discovery through chemoproteomics screening and high-throughput optimisation” (Communications Chemistry, 2025)",
  "note": "Some of the results follow. The data scatter; read single values as rough.",
  "data": [
    {"compound": "ClCC(=O)N[C@@H]1CCCc2ccccc12", "experiment": "log2 mean competition ratio of IA-DTB cysteine labelling (DMSO/compound) (log2 ratio); higher = stronger cysteine engagement by compound", "settings": "50 µM; treatment time: 4 h; cell line lysate: HEK293T", "method": "(§1)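 IA-DTB competitive cysteine chemoproteomics in HEK293T RIPA lysate. Lysates were treated with compound 29 or 30 at 50 or 200 µM for 4 h, then IA-DTB (500 µM, 1 h), trypsin-digested, NeutrAvidin-enriched and analysed by diaPASEF. Competition ratio = intensity DMSO / intensity compound (n=4 treated, n=64 DMSO); binding: mean log2 CR ≥ 1 and p ≤ 0.05 plus QC filters. Target is the cysteine site.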", "values": [
      {"target": "TTC30A C174", "log2 mean competition ratio": 0.0759},
      {"target": "TRMT2A C486 (UniProt Q8IZ69)", "log2 mean competition ratio": 0.254},
      {"target": "TTLL4 C829 (UniProt Q14679)", "log2 mean competition ratio": -0.00487},
      {"target": "UBR2 C602 (UniProt Q8IWV8)", "log2 mean competition ratio": 0.0707},
      {"target": "U2SURP C918 (UniProt O15042)", "log2 mean competition ratio": -0.152},
      {"target": "UAP1L1 C296 (UniProt Q3KQV9)", "log2 mean competition ratio": 0.17},
      {"target": "TUBB4B C354 (UniProt P68371)", "log2 mean competition ratio": 0.394},
      {"target": "TWF2 C275 (UniProt Q6IBS0)", "log2 mean competition ratio": 0.267},
      {"target": "TRMU C222 (UniProt O75648)", "log2 mean competition ratio": -0.0997},
      {"target": "TRPS1 C587 (UniProt Q9UHF7)", "log2 mean competition ratio": 0.396},
      {"target": "TSPYL1 C160 (UniProt Q9H0U9)", "log2 mean competition ratio": 0.0264},
      {"target": "UBAP1 C81 (UniProt Q9NZ09)", "log2 mean competition ratio": -0.26},
      {"target": "TTC7B C21 (UniProt Q86TV6)", "log2 mean competition ratio": -0.127},
      {"target": "TXNDC16 C821 (UniProt Q9P2K2)", "log2 mean competition ratio": -0.0721},
      {"target": "TSEN54 C338 (UniProt Q7Z6J9)", "log2 mean competition ratio": 0.0222},
      {"target": "TUBGCP2 C733 (UniProt Q9BSJ2)", "log2 mean competition ratio": 0.117},
      {"target": "TXNRD2 C54 (UniProt Q9NNW7)", "log2 mean competition ratio": -0.369},
      {"target": "TRRAP C620 (UniProt Q9Y4A5)", "log2 mean competition ratio": -0.0581},
      {"target": "UACA C994 (UniProt Q9BZF9)", "log2 mean competition ratio": 0.0602},
      {"target": "UBR4 C122 (UniProt Q5T4S7)", "log2 mean competition ratio": 0.135}
    ]},
    {"compound": "ClCC(=O)N[C@@H]1CCCc2ccccc12", "experiment": "log2 mean competition ratio of IA-DTB cysteine labelling (DMSO/compound) (log2 ratio); higher = stronger cysteine engagement by compound", "settings": "200 µM; treatment time: 4 h; cell line lysate: HEK293T", "method": "as §1", "values": [
      {"target": "TTC30A C174", "log2 mean competition ratio": -0.116},
      {"target": "TRMT2A C486 (UniProt Q8IZ69)", "log2 mean competition ratio": 0.169},
      {"target": "TTLL4 C829 (UniProt Q14679)", "log2 mean competition ratio": 0.102},
      {"target": "UBR2 C602 (UniProt Q8IWV8)", "log2 mean competition ratio": -0.191},
      {"target": "U2SURP C918 (UniProt O15042)", "log2 mean competition ratio": 0.165},
      {"target": "UAP1L1 C296 (UniProt Q3KQV9)", "log2 mean competition ratio": -0.439},
      {"target": "TUBB4B C354 (UniProt P68371)", "log2 mean competition ratio": -0.103},
      {"target": "TWF2 C275 (UniProt Q6IBS0)", "log2 mean competition ratio": 0.0457},
      {"target": "TRMU C222 (UniProt O75648)", "log2 mean competition ratio": 0.00948},
      {"target": "TRPS1 C587 (UniProt Q9UHF7)", "log2 mean competition ratio": 0.305},
      {"target": "TSPYL1 C160 (UniProt Q9H0U9)", "log2 mean competition ratio": -0.0236},
      {"target": "UBAP1 C81 (UniProt Q9NZ09)", "log2 mean competition ratio": 0.229},
      {"target": "TTC7B C21 (UniProt Q86TV6)", "log2 mean competition ratio": 0.00209},
      {"target": "TXNDC16 C821 (UniProt Q9P2K2)", "log2 mean competition ratio": -0.0179},
      {"target": "TSEN54 C338 (UniProt Q7Z6J9)", "log2 mean competition ratio": 0.299},
      {"target": "TUBGCP2 C733 (UniProt Q9BSJ2)", "log2 mean competition ratio": 0.801},
      {"target": "TXNRD2 C54 (UniProt Q9NNW7)", "log2 mean competition ratio": -0.101},
      {"target": "TRRAP C620 (UniProt Q9Y4A5)", "log2 mean competition ratio": -0.143},
      {"target": "UACA C994 (UniProt Q9BZF9)", "log2 mean competition ratio": -0.2},
      {"target": "UBR4 C122 (UniProt Q5T4S7)", "log2 mean competition ratio": -0.254}
    ]}
  ]
}
